Measured values from the supplement of paper PMC10849652.
This is one part of the list.

By UniProt entry, the sequences of proteins in these tests, tags left out. Where a name states a change or a piece, a line headed by the entry shows the natural chain unless it says otherwise.
UniProt P38919, whole entry, looked up: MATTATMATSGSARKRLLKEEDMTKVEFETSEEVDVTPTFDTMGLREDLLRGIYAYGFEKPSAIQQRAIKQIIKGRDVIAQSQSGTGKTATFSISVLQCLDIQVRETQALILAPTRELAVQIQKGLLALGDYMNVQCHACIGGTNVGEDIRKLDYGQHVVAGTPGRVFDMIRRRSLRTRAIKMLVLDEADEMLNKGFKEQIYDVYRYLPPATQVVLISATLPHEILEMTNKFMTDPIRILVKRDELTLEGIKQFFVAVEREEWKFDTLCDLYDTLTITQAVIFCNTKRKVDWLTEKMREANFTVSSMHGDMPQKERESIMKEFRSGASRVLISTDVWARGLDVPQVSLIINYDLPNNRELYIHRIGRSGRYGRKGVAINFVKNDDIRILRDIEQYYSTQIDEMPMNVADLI
UniProt Q8IV48: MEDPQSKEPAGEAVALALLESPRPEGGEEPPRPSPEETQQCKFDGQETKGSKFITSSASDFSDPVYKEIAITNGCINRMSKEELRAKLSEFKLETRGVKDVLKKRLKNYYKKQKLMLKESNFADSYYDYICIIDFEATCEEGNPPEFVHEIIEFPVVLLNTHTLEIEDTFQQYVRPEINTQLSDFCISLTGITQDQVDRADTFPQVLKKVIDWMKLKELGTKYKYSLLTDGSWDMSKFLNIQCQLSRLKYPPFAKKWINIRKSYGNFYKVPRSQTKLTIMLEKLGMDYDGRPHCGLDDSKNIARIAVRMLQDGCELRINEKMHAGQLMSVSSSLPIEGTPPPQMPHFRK
UniProt O15372, whole entry, looked up: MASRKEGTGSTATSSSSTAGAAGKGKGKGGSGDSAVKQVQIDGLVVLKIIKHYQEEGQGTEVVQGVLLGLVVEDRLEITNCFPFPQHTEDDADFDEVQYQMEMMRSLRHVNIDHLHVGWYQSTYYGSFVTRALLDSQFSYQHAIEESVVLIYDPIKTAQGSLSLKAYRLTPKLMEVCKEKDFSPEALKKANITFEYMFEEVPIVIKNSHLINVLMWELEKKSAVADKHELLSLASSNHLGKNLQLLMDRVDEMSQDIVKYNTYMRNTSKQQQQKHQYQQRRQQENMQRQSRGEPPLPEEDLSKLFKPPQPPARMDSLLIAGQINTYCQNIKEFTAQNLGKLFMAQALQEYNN
UniProt P49770: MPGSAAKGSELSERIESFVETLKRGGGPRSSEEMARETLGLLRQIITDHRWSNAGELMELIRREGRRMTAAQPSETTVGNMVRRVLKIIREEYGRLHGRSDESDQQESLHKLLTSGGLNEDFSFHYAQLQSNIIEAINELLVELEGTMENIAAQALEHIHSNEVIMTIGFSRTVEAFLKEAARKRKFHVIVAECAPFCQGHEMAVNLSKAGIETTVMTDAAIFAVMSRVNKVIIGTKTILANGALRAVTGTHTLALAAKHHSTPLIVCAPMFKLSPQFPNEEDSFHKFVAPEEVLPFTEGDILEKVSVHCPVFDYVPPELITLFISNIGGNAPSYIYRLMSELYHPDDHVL
UniProt P55199: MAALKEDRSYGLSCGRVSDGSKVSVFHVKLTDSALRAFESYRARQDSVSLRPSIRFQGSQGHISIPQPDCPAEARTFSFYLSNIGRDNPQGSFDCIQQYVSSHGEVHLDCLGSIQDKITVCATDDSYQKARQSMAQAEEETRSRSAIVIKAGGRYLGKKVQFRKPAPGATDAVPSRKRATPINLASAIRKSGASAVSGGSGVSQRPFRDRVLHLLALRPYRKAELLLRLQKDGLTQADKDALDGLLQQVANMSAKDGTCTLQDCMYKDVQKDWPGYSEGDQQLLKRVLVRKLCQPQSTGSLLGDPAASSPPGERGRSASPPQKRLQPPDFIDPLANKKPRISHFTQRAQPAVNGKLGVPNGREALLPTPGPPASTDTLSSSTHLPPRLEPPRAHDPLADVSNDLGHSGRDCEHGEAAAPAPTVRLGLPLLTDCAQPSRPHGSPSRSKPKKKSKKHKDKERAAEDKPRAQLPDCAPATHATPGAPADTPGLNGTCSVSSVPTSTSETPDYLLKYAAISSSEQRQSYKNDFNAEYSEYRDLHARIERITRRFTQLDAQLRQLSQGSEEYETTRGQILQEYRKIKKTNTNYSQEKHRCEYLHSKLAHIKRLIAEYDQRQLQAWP
UniProt O43491, whole entry, looked up: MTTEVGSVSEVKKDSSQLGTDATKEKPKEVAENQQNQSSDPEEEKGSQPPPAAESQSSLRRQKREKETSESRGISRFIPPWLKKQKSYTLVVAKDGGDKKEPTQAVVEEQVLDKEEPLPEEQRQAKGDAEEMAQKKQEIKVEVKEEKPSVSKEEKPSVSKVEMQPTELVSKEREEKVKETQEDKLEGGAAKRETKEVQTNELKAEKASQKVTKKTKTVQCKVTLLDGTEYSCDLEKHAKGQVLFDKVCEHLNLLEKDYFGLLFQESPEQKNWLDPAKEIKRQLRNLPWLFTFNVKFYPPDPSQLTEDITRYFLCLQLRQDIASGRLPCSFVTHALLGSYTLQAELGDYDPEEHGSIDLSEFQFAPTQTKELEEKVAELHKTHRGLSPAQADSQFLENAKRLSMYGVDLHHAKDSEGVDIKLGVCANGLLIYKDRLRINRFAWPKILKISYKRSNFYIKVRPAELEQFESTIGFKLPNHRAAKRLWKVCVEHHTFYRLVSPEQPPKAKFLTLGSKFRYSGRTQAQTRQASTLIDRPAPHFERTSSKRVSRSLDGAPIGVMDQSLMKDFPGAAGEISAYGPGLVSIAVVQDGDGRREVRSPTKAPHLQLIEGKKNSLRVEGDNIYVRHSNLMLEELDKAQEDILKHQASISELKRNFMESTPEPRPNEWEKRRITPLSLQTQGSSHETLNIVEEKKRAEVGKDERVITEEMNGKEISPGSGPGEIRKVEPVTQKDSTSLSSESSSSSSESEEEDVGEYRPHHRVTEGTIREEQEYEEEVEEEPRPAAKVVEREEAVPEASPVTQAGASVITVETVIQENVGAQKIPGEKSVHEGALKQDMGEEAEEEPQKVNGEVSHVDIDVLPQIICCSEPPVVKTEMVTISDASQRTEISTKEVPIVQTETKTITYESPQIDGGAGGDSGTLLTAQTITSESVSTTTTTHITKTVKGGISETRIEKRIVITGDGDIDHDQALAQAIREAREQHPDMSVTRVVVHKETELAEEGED
UniProt Q15723: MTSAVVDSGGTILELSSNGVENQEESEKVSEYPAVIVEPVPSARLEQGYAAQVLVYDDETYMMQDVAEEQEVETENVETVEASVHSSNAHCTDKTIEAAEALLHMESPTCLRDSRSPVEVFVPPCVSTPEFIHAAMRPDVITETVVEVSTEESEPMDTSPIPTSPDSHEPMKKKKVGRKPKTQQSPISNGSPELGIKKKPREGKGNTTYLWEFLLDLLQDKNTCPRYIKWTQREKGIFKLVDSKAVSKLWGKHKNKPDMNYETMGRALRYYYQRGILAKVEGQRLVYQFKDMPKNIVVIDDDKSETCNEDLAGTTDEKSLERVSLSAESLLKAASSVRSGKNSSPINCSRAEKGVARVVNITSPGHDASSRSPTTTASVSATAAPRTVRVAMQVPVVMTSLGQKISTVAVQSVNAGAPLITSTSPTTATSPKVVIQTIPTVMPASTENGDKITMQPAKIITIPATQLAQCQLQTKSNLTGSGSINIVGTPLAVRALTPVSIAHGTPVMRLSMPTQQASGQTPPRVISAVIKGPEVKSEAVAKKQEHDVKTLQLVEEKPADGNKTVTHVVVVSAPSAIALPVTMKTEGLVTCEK

Tests used:
Assay in all cases: log2 fold change, soluble protein after heating vs DMSO (PISA); higher = thermal stabilisation; K562 lysate, 10 uM; active = over 0.2 and 3.5 SD of the protein, either way, in both replicates (recomputed)
lapatinib = compound: CS(=O)(=O)CCNCc1ccc(-c2ccc3ncnc(Nc4ccc(OCc5cccc(F)c5)c(Cl)c4)c3c2)o1 [lapatinib]
Method in brief: (§1)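 Log-two fold change in thermal stability relative to solvent controls is reported from duplicates. For each sample, crude K562 extract from dounce-homogenised pellets in PBS pH 7.4 with 1 mM MgCl2, at 1 mg/mL protein, was treated with 10 μM compound for 30 min. Aliquots heated for 3 min across 48°C-58°C were pooled, brought to 0.5% NP-40 at 4°C and cleared at 21,000xg for 90 min. The supernatant was quantified by TMTpro 16plex LC-MS/MS with channel sums equalised.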

pictilisib = compound: CS(=O)(=O)N1CCN(Cc2cc3nc(-c4cccc5[nH]ncc45)nc(N4CCOCC4)c3s2)CC1 [pictilisib]
Method in brief: as §1

crizotinib = compound: C[C@@H](Oc1cc(-c2cnn(C3CCNCC3)c2)cnc1N)c1c(Cl)ccc(F)c1Cl [crizotinib]
Method in brief: as §1

[1] = compound: C[C@H](C1=CC=C(C=C1)C(=O)NC2=C3C=CNC3=NC=C2)N
Method in brief: as §1

duvelisib = compound: C[C@H](Nc1ncnc2nc[nH]c12)c1cc2cccc(Cl)c2c(=O)n1-c1ccccc1 [duvelisib]
Method in brief: as §1

gandotinib = compound: Cc1cc(Nc2cc(CN3CCOCC3)c3nc(C)c(Cc4ccc(Cl)cc4F)n3n2)n[nH]1 [gandotinib]
Method in brief: as §1

tozasertib = compound: Cc1cc(Nc2cc(N3CCN(C)CC3)nc(Sc3ccc(NC(=O)C4CC4)cc3)n2)n[nH]1 [tozasertib]
Method in brief: as §1

doramapimod = compound: Cc1ccc(-n2nc(C(C)(C)C)cc2NC(=O)Nc2ccc(OCCN3CCOCC3)c3ccccc23)cc1 [doramapimod]
Method in brief: as §1

bafetinib = compound: Cc1ccc(NC(=O)c2ccc(CN3CC[C@H](N(C)C)C3)c(C(F)(F)F)c2)cc1Nc1nccc(-c2cncnc2)n1 [bafetinib]
Method in brief: as §1

[2] = compound: Cc1cccc(CC(=O)N2CCc3c2ccc(-c2cn(C)c4ncnc(N)c24)c3F)n1
Method in brief: as §1

nilotinib = compound: Cc1cn(-c2cc(NC(=O)c3ccc(C)c(Nc4nccc(-c5cccnc5)n4)c3)cc(C(F)(F)F)c2)cn1 [nilotinib]
Method in brief: as §1

[3] = compound: Cc1nc(Nc2n[nH]c3c2CN(C(=O)N[C@H](CN(C)C)c2ccccc2)C3(C)C)c2sccc2n1
Method in brief: as §1

dasatinib = compound: Cc1nc(Nc2ncc(C(=O)Nc3c(C)cccc3Cl)s2)cc(N2CCN(CCO)CC2)n1 [dasatinib]
Method in brief: as §1

[4] = compound: Cc1ncc(-c2ccnc(Nc3ccc(S(C)(=O)=O)cc3)n2)n1C(C)C
Method in brief: as §1

[5] = compound: Cn1cc(-c2ccc3c(c2)CCN3C(=O)Cc2cccc(C(F)(F)F)c2)c2c(N)ncnc21
Method in brief: as §1

quisinostat = compound: Cn1cc(CNCC2CCN(c3ncc(C(=O)NO)cn3)CC2)c2ccccc21 [quisinostat]
Method in brief: as §1

tipifarnib = compound: Cn1cncc1[C@@](N)(c1ccc(Cl)cc1)c1ccc2c(c1)c(-c1cccc(Cl)c1)cc(=O)n2C [tipifarnib]
Method in brief: as §1

[6] = compound: NC(=O)Nc1cc(-c2cccc(F)c2)sc1C(=O)N[C@H]1CCCNC1
Method in brief: as §1

[7] = compound: NC(=O)c1cnc(N[C@@H]2CCCC[C@@H]2N)nc1Nc1cccc(-n2nccn2)c1
Method in brief: as §1

[8] = compound: NC1(c2ccc(-c3nc4ccn5c(=O)[nH]nc5c4cc3-c3ccccc3)cc2)CCC1
Method in brief: as §1

EIF4A3 (UniProt P38919)
log2 fold change (lapatinib): inactive: -0.034 | log2 fold change (pictilisib): inactive: 0.011 | log2 fold change (crizotinib): inactive: -0.01 | log2 fold change [1]: inactive: -0.116 | log2 fold change (duvelisib): inactive: 0.015 | log2 fold change (gandotinib): inactive: -0.015 | log2 fold change (tozasertib): inactive: -0.025 | log2 fold change (doramapimod): inactive: 0.051 | log2 fold change (bafetinib): inactive: -0.018 | log2 fold change [2]: inactive: 0.042 | log2 fold change (nilotinib): inactive: -0.015 | log2 fold change [3]: inactive: -0.031 | log2 fold change (dasatinib): inactive: -0.048 | log2 fold change [4]: inactive: 0.001 | log2 fold change [5]: inactive: -0.017 | log2 fold change (quisinostat): inactive: -0.021 | log2 fold change (tipifarnib): inactive: 0.015 | log2 fold change [6]: inactive: 0.021 | log2 fold change [7]: inactive: 0.02 | log2 fold change [8]: inactive: -0.009

ERI1 (UniProt Q8IV48)
log2 fold change (lapatinib): inactive: 0.037 | log2 fold change (pictilisib): inactive: -0.079 | log2 fold change (crizotinib): inactive: -0.017 | log2 fold change [1]: inactive: 0.047 | log2 fold change (duvelisib): inactive: -0.022 | log2 fold change (gandotinib): inactive: -0.123 | log2 fold change (tozasertib): inactive: -0.015 | log2 fold change (doramapimod): inactive: 0.015 | log2 fold change (bafetinib): inactive: 0.04 | log2 fold change [2]: inactive: -0.051 | log2 fold change (nilotinib): inactive: 0.004 | log2 fold change [3]: inactive: -0.008 | log2 fold change (dasatinib): inactive: -0.012 | log2 fold change [4]: inactive: 0.035 | log2 fold change [5]: inactive: 0.041 | log2 fold change (quisinostat): inactive: -0.019 | log2 fold change (tipifarnib): inactive: 0.043 | log2 fold change [6]: inactive: 0.08 | log2 fold change [7]: inactive: -0.019 | log2 fold change [8]: inactive: 0.058

EIF3H (UniProt O15372)
log2 fold change (lapatinib): inactive: -0.008 | log2 fold change (pictilisib): inactive: 0.009 | log2 fold change (crizotinib): inactive: -0.011 | log2 fold change [1]: inactive: -0.013 | log2 fold change (duvelisib): inactive: 0.012 | log2 fold change (gandotinib): inactive: -0.002 | log2 fold change (tozasertib): inactive: -0.013 | log2 fold change (doramapimod): inactive: 0.015 | log2 fold change (bafetinib): inactive: 0.097 | log2 fold change [2]: inactive: 0.008 | log2 fold change (nilotinib): inactive: -0.007 | log2 fold change [3]: inactive: 0.008 | log2 fold change (dasatinib): inactive: 0.032 | log2 fold change [4]: inactive: -0.017 | log2 fold change [5]: inactive: -0.009 | log2 fold change (quisinostat): inactive: -0.065 | log2 fold change (tipifarnib): inactive: 0.004 | log2 fold change [6]: inactive: -0.004 | log2 fold change [7]: inactive: 0.008 | log2 fold change [8]: inactive: -0.027

EIF2B2 (UniProt P49770)
log2 fold change (lapatinib): inactive: -0.038 | log2 fold change (pictilisib): inactive: -0.021 | log2 fold change (crizotinib): inactive: -0.006 | log2 fold change [1]: inactive: 0.02 | log2 fold change (duvelisib): inactive: 0.01 | log2 fold change (gandotinib): inactive: -0.093 | log2 fold change (tozasertib): inactive: 0.025 | log2 fold change (doramapimod): inactive: 0.004 | log2 fold change (bafetinib): inactive: -0.014 | log2 fold change [2]: inactive: -0.01 | log2 fold change (nilotinib): inactive: 0.017 | log2 fold change [3]: inactive: 0.005 | log2 fold change (dasatinib): inactive: -0.038 | log2 fold change [4]: inactive: -0.019 | log2 fold change [5]: inactive: -0.005 | log2 fold change (quisinostat): inactive: 0.003 | log2 fold change (tipifarnib): inactive: -0.025 | log2 fold change [6]: inactive: -0.013 | log2 fold change [7]: inactive: -0.018 | log2 fold change [8]: inactive: 0.006

EPB41, A0A2R8Y783
log2 fold change (lapatinib): inactive: -0.063 | log2 fold change (pictilisib): inactive: 0.04 | log2 fold change [1]: inactive: 0.121 | log2 fold change (duvelisib): inactive: -0.089 | log2 fold change (gandotinib): inactive: -0.066 | log2 fold change (tozasertib): inactive: 0.061 | log2 fold change (bafetinib): inactive: 0.04 | log2 fold change [2]: inactive: -0.006 | log2 fold change (dasatinib): inactive: 0.028 | log2 fold change [5]: inactive: -0.11 | log2 fold change [7]: inactive: -0.108

ELL (UniProt P55199)
log2 fold change (lapatinib): inactive: 0.056 | log2 fold change (pictilisib): inactive: 0.009 | log2 fold change (crizotinib): inactive: -0.003 | log2 fold change [1]: inactive: -0.049 | log2 fold change (duvelisib): inactive: 0.055 | log2 fold change (gandotinib): inactive: -0.029 | log2 fold change (tozasertib): inactive: 0.017 | log2 fold change (doramapimod): inactive: 0.019 | log2 fold change (bafetinib): inactive: -0.051 | log2 fold change [2]: inactive: -0.066 | log2 fold change (nilotinib): inactive: -0.021 | log2 fold change [3]: inactive: 0 | log2 fold change (dasatinib): inactive: -0.125 | log2 fold change [4]: inactive: 0.028 | log2 fold change [5]: inactive: 0.002 | log2 fold change (quisinostat): inactive: -0.095 | log2 fold change (tipifarnib): inactive: 0 | log2 fold change [6]: inactive: -0.016 | log2 fold change [7]: inactive: 0.05 | log2 fold change [8]: inactive: 0.01

EPB41L2 (UniProt O43491)
log2 fold change (lapatinib): inactive: -0.017 | log2 fold change (pictilisib): inactive: 0.008 | log2 fold change (crizotinib): inactive: 0.017 | log2 fold change [1]: inactive: 0.069 | log2 fold change (duvelisib): inactive: 0.003 | log2 fold change (gandotinib): inactive: -0.025 | log2 fold change (tozasertib): inactive: 0.004 | log2 fold change (doramapimod): inactive: -0.002 | log2 fold change (bafetinib): inactive: -0.013 | log2 fold change [2]: inactive: -0.043 | log2 fold change (nilotinib): inactive: 0.008 | log2 fold change [3]: inactive: 0.014 | log2 fold change (dasatinib): inactive: -0.011 | log2 fold change [4]: inactive: 0.01 | log2 fold change [5]: inactive: -0.011 | log2 fold change (quisinostat): inactive: 0.026 | log2 fold change (tipifarnib): inactive: 0.009 | log2 fold change [6]: inactive: -0.009 | log2 fold change [7]: inactive: -0.003 | log2 fold change [8]: inactive: -0.005

ELF2 (UniProt Q15723)
log2 fold change (lapatinib): active: 0.256 | log2 fold change (pictilisib): inactive: 0.039 | log2 fold change (crizotinib): inactive: -0.085 | log2 fold change [1]: inactive: 0.033 | log2 fold change (duvelisib): inactive: 0.072 | log2 fold change (gandotinib): inactive: -0.046 | log2 fold change (tozasertib): inactive: -0.033 | log2 fold change (doramapimod): inactive: -0.042 | log2 fold change (bafetinib): inactive: -0.119 | log2 fold change [2]: inactive: -0.075 | log2 fold change (nilotinib): inactive: 0.032 | log2 fold change [3]: inactive: -0.007 | log2 fold change (dasatinib): inactive: -0.105 | log2 fold change [4]: inactive: 0.065 | log2 fold change [5]: inactive: 0.068 | log2 fold change (quisinostat): inactive: 0.026 | log2 fold change (tipifarnib): inactive: -0.043 | log2 fold change [6]: inactive: -0.035 | log2 fold change [7]: inactive: -0.02 | log2 fold change [8]: inactive: 0.032
